In all, about 31,000 sequences went through this assay and about 1,400 (4.5%) were called active.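 The calls were made as follows: active = median seed-adjusted z-score above 1 or below -1; inactive = the rest.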 Some of the results follow.
Experiment: Novel Modifiers of Survival Motor Neuron (SMN) Protein: Gene Identification via Genome-wide siRNA Screen;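 also: luminescence tracks full-length SMN protein made from the SMN2 reporter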
Details: HEK293T SMN2-luciferase reporter, siRNA knockdown, 72 h; actives lie on both sides
In short: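 siRNA screen, 10418 genes ×3 siRNAs; 1 pmol/well, lipid reverse transfection into HEK293T SMN2-luc reporter line. 72 h, 37 °C, 5% CO2; ONE-Glo readout. Data: neg-ctrl normalized, log10, MAD; hit = MAD >1.0 or < -1.0.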

Sequence	median seed-adjusted z-score
CCACAAUUCCACACCCAAATT against CACNG3	inactive: -0.189
CAUCCGGACUACUUCCAAATT against ABCC5	inactive: 0.00533
GAAGAUACUCAACGAAUUATT against DIAPH2	inactive: -0.0149
GUCCCUCAGCUAUCACAGATT against ZFP57	inactive: -0.267
CCUUUCUGGUGAUCACGAATT against LARP7	inactive: -0.483
GAAAAGGCGAAGACAAUCATT against CDC14C	inactive: 0.437
CCUGUACGAUGAGAUAGAATT against CYFIP2	inactive: -0.322
AGAUCGACUUGAUCGUGCATT against CDK10	inactive: 0.327
ACAUAGGCAUGGUAUCACATT against ASAH2	inactive: 0.615
GAAUCAGCUCUUCACUAUATT against GLCE	inactive: 0.752
GCUAAAGAGAGAUAUGGAATT against DARS	inactive: 0
GAGUUCAGCCUGCACCACATT against PRRX2	inactive: -0.141
AGUCUUCGGUGGCCAGGUATT against FUT6	inactive: 0.282
GGUGGACUCCGAUUAUCAATT against STXBP1	inactive: -0.0496
GACCGACUCAGAUAUCAUUTT against SNRPA	active: -2.09
GAGUCUAUCAUGAAUGUCATT against HSD3B1	inactive: -0.145
GUCUAUGACAGUUACCUUATT against TMPRSS13	inactive: 0.0584
GCCCAACACUCGCCUUGAATT against DPP3	inactive: -0.261
CCAUUGAAUGGAAUCUGAATT against LCORL	inactive: -0.0458
CAGUAAAUCUGAAAAGUAATT against RBMXL2	inactive: -0.387
UCCUCGUAAGUGACCGUUATT against CHST14	inactive: 0.228
UAACUUCUAUGACAACAAATT against CTSA	inactive: 0.0897
GUAUGUUCAGGUUCAGUCATT against SMOC1	inactive: 0.0453
GAGUAUAUCAGAAUCGGGATT against THRAP3	inactive: -0.852
GCCGAGUUGUGAUUAUCGATT against ACTR10	inactive: 0.362
AGAAAUCUCCACUAUUUUATT against AKR1C3	inactive: -0.00538
GGUUGUAGAUGGUACUCCATT against ADAMTS1	inactive: 0.173
CGCCGGAAGUUGUAUGGUUTT against FLT1	inactive: 0.407
AGCCCGAUCUGAAGAAGGATT against SOX9	inactive: 0.775

As a working copy, some entries already given:
Sequence	median seed-adjusted z-score
CAUCCGGACUACUUCCAAATT against ABCC5	inactive: 0.00533
GAAGAUACUCAACGAAUUATT against DIAPH2	inactive: -0.0149
GUCCCUCAGCUAUCACAGATT against ZFP57	inactive: -0.267
CCUUUCUGGUGAUCACGAATT against LARP7	inactive: -0.483
GAAAAGGCGAAGACAAUCATT against CDC14C	inactive: 0.437
CCUGUACGAUGAGAUAGAATT against CYFIP2	inactive: -0.322
